The values that follow come from PubChem BioAssay AID493014 (National Center for Advancing Translational Sciences (NCATS), 2011).

The test can be described thus: qHTS Assay to Find Inhibitors of Chronic Active B-Cell Receptor Signaling. Conditions: ABC-DLBCL IkBa-CBG/CBR reporter, luminescence ratio (green luciferase fused to IkBa over red control in TMD8 lymphoma cells), 4 h. In short, it runs like this:
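Doxycycline induced both beetle luciferases in TMD8 lymphoma cells; IKK-driven degradation limits the IkappaBalpha-fused green signal, while red luminescence normalises for cell number and nonspecific effects. Compounds tested up to 46 uM, 4 hrs.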

Setting [1] is: measured here: CBR red luminescence, cell number.
The mark [2] stands for this setting: measured here: IkBa-CBG green luminescence.

SMILES strings stand for the structures. This is one part of the list. These are further read-outs of the screen, such as a control signal, another cell line or another target. No call is given for them. Compounds called inactive in the main read-out are mostly missing here. Potencies come from curve fits of mixed quality, noted in brackets.

With `CC(=O)N1N=C(c2ccncc2)OC1(Cc1ccccc1)Cc1ccccc1`, the AC50 under setting [1] was 25.1 µM [falling, single point].
`CC(Sc1nnc(-c2ccccc2F)n1C1CC1)C(N)=O` (stereo unspecified): the AC50 under setting [1] was 0.501 µM [falling, partial curve, poor fit].
In the case of `Cc1cc(C)c2c(N=NN3CCCCC3)[nH]nc2n1`, the AC50 was 2.31 µM [falling, full curve] under setting [1] and 2.59 µM [rising, full curve, poor fit] under setting [2].
In the case of `COc1ccc(C2c3c(ncn(CCN4CCOCC4)c3=N)Oc3ccc4ccccc4c32)cc1OC` (stereo unspecified), under setting [1], the AC50 was 15.8 µM [falling, single point].
Still for that read-out and setting: in the case of `COCCNC(=O)C(OC(=O)CC1Sc2ccccc2NC1=O)c1ccccc1` (stereo unspecified) it was 1.16 µM [rising, full curve]; in that of `COc1ccccc1N1CN(Cc2ccccc2)CNC1=S`, 35.5 µM [falling, single point]; in that of `COc1ccccc1-n1ccnc(SCC(=O)NCc2ccccc2Cl)c1=O`, 0.651 µM [falling, full curve, poor fit].
Turning to `O=C(Nc1ccccc1Br)c1ccccc1-c1ccccc1`, under setting [1], the concentration at half-maximal activity (AC50) was 29.1 µM [rising, partial curve, poor fit].
On to `O=C(NCCC1=CCCCC1)c1ccc2c(c1)N(Cc1ccccc1)C(=O)CS2`, for which the AC50 under setting [1] is 2.06 µM [rising, full curve].
For the compound `CC(=O)Nc1ccc(-c2nc3cc(Cl)ccc3o2)cc1`, under setting [1], the half-maximal activity concentration (AC50) was 0.0891 µM [rising, full curve, poor fit].
The same measure, in the same setting: next, `Cc1csc(NC(=O)c2ccc3ccccc3n2)n1`: 11.2 µM [falling, single point]; `CC1Cc2ccccc2N1C(=O)Cn1nc(C(=O)O)c2ccccc2c1=O` (stereo unspecified): 12.6 µM [falling, partial curve]; `CCOc1ccc(C(=O)NCC(=O)OCC(=O)N2CCCCC2)cc1`: 29.1 µM [falling, single point].
In the case of `Nc1nc(SCc2ccc([N+](=O)[O-])cc2)nc2nc3c(cc12)CCCC3`, the AC50 under setting [1] is 0.651 µM [rising, full curve, poor fit].
For the compound `O=C(Nc1ccccc1OC(=O)c1ccc(Cl)cc1)c1ccc(Cl)cc1`, under setting [1], the half-maximal activity concentration (AC50) was 14.6 µM [falling, partial curve, poor fit].
On the same count and under the same terms, next, `CC(C)(C)C(=O)NCc1ccc(C(=O)CN2C(=O)NC3(CCCC3)C2=O)s1`: 14.6 µM [rising, partial curve, poor fit]; `CCC(C)NC(=O)CN(c1ccc(OC)cc1)S(=O)(=O)c1ccc(NC(C)=O)cc1` (stereo unspecified): 35.5 µM [rising, single point].
On the same count and under the same terms, next, `CCOc1cc(/C=N/Nc2cc(C)nc(-n3nc(C)cc3C)n2)ccc1O`: 0.891 µM [falling, partial curve, poor fit].
On the same count and under the same terms, next, `FC(F)(F)c1ccc(NCc2ccccn2)nc1`: 0.708 µM [rising, partial curve, poor fit].
`Cc1cccc(C)c1NC(=O)CNC(=O)c1cnccn1`: under setting [1], the concentration at half-maximal activity (AC50) was 0.0291 µM [rising, full curve, poor fit].
As to `CCOc1ccc(NCc2nc3ccccc3n2CCOc2ccccc2)cc1`, under setting [1], the concentration at half-maximal activity (AC50) is 7.31 µM [falling, partial curve].
Same read-out and setting: next, `Cn1c(=O)cc(OCCCC(=O)NCCN2CCN(c3ccccc3F)CC2)c2ccccc21`: 0.517 µM [rising, partial curve, poor fit]; `CS(=O)(=O)c1ccc2nc(NC(=O)c3ccccc3)sc2c1`: 11.2 µM [falling, partial curve, poor fit]; `COc1cc2c(cc1OC)C(Cc1ccc(O)cc1)N(C)CC2` (stereo unspecified): 2.91 µM [rising, partial curve, poor fit].
Still for that read-out and setting: next, `c1cc2c(cc1C1CCCCC1)c1c3n2CCCNC3CCC1` (stereo unspecified): 16.4 µM [falling, partial curve].
The same measure, in the same setting: next, `COC(=O)[C@H](Cc1ccccc1)NC(=O)O[C@@H]1C(=O)c2cc(OC)ccc2O[C@H]1c1ccc(OC)c(Br)c1`: 0.082 µM [rising, full curve, poor fit].
As for `O=C(O)/C=C/C(=O)Nc1ccccc1C(=O)OCC(=O)c1ccc2c(c1)OCCO2`, the half-maximal activity concentration (AC50) under setting [1] was 35.5 µM [falling, single point].
The same measure, in the same setting: in the case of `Cc1ccc(/C=C(\C#N)C(=O)N2CCCC2)c(C)c1` it was 35.5 µM [falling, partial curve, poor fit]; in that of `CCOc1ccc(-c2c(C(=O)N/N=C/c3ccc(Cl)cc3)nnn2-c2nonc2N)cc1`, 12.6 µM [rising, partial curve, poor fit].
Same read-out and setting: next, `CC(OC(=O)c1ccc2c(c1)C(=O)N(Cc1ccncc1)C2=O)C(=O)Nc1cccc(Cl)c1Cl` (stereo unspecified): 23.1 µM [rising, partial curve, poor fit].
For `CCN(CC)S(=O)(=O)c1ccc(N2CCN(C)CC2)c(NC(=O)Nc2ccc(C)cc2)c1`, the AC50 under setting [1] was 28.2 µM [falling, partial curve, poor fit].
On the same count and under the same terms, next, `Cc1ccccc1NC(=O)c1ccc2nccnc2c1`: 12.6 µM [falling, partial curve].
As for `Cc1nnc(NC(=O)c2ccc(S(=O)(=O)N3CCCCC3C)cc2)o1` (stereo unspecified), the concentration at half-maximal activity (AC50) under setting [2] is 25.1 µM [falling, single point].
Consider `O=C(NC(=S)N1CCN(c2ccccn2)CC1)c1ccco1`, for which the AC50 under setting [1] is 0.112 µM [rising, full curve, poor fit].
On the same count and under the same terms, next, `O=C(O)c1cccc(CSc2nnc(COc3ccccc3)o2)c1`: 32.6 µM [rising, single point].
Still for that read-out and setting: next, `Cc1ccccc1CNCc1ccc2c(c1)OCO2`: 35.5 µM [falling, single point].
Same read-out and setting: next, `COc1ccc(/C=N/n2c(SC)nnc(C(C)(C)C)c2=O)cc1`: 3.26 µM [rising, single point]; `CC(=O)C1=C(O)C(=O)N(c2ccc(C(=O)O)cc2)C1c1ccc([N+](=O)[O-])cc1` (stereo unspecified): 35.5 µM [falling, partial curve, poor fit].
Take `Cc1cc(/C=N/NC(=O)c2ccccn2)c(C)n1-c1cccc([N+](=O)[O-])c1`: the concentration at half-maximal activity (AC50) under setting [1] was 10 µM [falling, partial curve, poor fit].
On the same count and under the same terms, next, `CCOCCCNC(=O)/C(C#N)=C/c1ccccc1F`: 10 µM [falling, partial curve, poor fit]; `O=C(Nc1cccc(NC(=O)c2ccccc2F)c1)c1ccccc1`: 35.5 µM [falling, single point].
The same measure, in the same setting: in the case of `CCN(CC(=O)Nc1ccc([N+](=O)[O-])cc1OC)c1ccccc1` it was 10 µM [falling, partial curve].
With `CCN(CC)C(=O)CC(c1ccc(F)cc1)c1ccco1` (stereo unspecified), the concentration at half-maximal activity (AC50) under setting [1] is 29.1 µM [falling, single point].
Same read-out and setting: in the case of `CCN(Cc1nc2ccccc2c(=O)[nH]1)C(=O)COc1ccccc1-c1ccccc1` it was 18.4 µM [falling, single point]; in that of `O=C(NCCc1ccccc1)c1cnc2sccn2c1=O`, 20.6 µM [falling, single point]; in that of `C=CCOC(=O)C(=O)/C=C/c1ccc2c(c1)Cc1ccccc1-2`, 1.58 µM [falling, partial curve, poor fit].
Still for that read-out and setting: next, `CN1CCN(CCCNC(=O)c2cc3c(=O)n(C)c4ccccc4c3s2)CC1`: 16.4 µM [falling, partial curve, poor fit]; `O=C(CCc1ccccc1)Nc1cc2c(cc1Cl)OCCO2`: 29.1 µM [rising, single point].
The same measure, in the same setting: in the case of `S=C(NCCN1CCOCC1)Nc1ccc(-c2nc3ccccc3[nH]2)cc1` it was 12.6 µM [falling, partial curve, poor fit].
Regarding `COc1ccccc1C(=O)COC(=O)c1cccs1`, the AC50 under setting [1] is 2.06 µM [rising, full curve].
On the same count and under the same terms, in the case of `CS(=O)(=O)c1ccc(-c2sc3ccccc3c2C(=O)N2CCN(c3ccc(F)cc3)CC2)cc1` it was 0.0366 µM [rising, full curve, poor fit]; in that of `COc1ccc(OC)c(Nc2cc(-c3ccccc3)nc(N)n2)c1`, 29.1 µM [rising, single point].
Take `c1ccc(CSc2nnc(-c3sccc3-n3cccc3)o2)cc1`: the half-maximal activity concentration (AC50) under setting [1] is 12.6 µM [rising, partial curve].
Regarding `O=C(NCCCN1CCCC1=O)c1cccc(NS(=O)(=O)c2ccccc2)c1`, the AC50 under setting [1] was 5.17 µM [falling, single point].
For the compound `Cc1ccc(CC2S/C(=N/N=C/c3ccco3)NC2=O)cc1` (stereo unspecified), the concentration at half-maximal activity (AC50) under setting [1] was 35.5 µM [rising, partial curve, poor fit].
The same measure, in the same setting: next, `O=C(Cc1ccccc1)Nc1ccc(NC(=O)c2ccco2)cc1Cl`: 25.1 µM [falling, partial curve, poor fit]; `CC1CCC2C(=O)N(c3cccc(OS(=O)(=O)c4ccccc4)c3)C(=O)C2C1` (stereo unspecified): 1.46 µM [rising, full curve, poor fit].
On to `O=C(c1ccccc1)N1CCN2C(=O)c3ccccc3C12c1ccc(Cl)cc1` (stereo unspecified), for which the AC50 under setting [1] was 20.6 µM [falling, partial curve] and the half-maximal activity concentration (AC50) under setting [2] is 16.4 µM [rising, partial curve, poor fit].
Turning to `CCOC(=O)N1CCN(Cc2cccs2)CC1`, the AC50 under setting [1] was 18.4 µM [falling, single point].
Turning to `COc1ccc2nc(SCC(=O)Nc3ccc4c(c3)OCCO4)[nH]c2c1`, the concentration at half-maximal activity (AC50) under setting [1] was 12.6 µM [falling, partial curve].
On the same count and under the same terms, in the case of `O=C1NCCCc2c1oc1ccc(O)cc21` it was 5.62 µM [falling, partial curve, poor fit]; in that of `CC(=O)c1ccc(OCc2ncc(C(F)(F)F)cc2Cl)cc1`, 17.8 µM [rising, partial curve].
On the same count and under the same terms, in the case of `CC(C)CNC(=O)COCc1cc(-c2ccc3c(c2)OCO3)on1` it was 3.16 µM [falling, full curve]; in that of `COCCNc1nc2c(-c3cccc(C(F)(F)F)c3)nnn2c2ccccc12`, 10 µM [rising, partial curve, poor fit].
